Results published in publication PMC11892261.

Chains of the proteins cited; added tags and fusions are not shown.
UniProt P26038: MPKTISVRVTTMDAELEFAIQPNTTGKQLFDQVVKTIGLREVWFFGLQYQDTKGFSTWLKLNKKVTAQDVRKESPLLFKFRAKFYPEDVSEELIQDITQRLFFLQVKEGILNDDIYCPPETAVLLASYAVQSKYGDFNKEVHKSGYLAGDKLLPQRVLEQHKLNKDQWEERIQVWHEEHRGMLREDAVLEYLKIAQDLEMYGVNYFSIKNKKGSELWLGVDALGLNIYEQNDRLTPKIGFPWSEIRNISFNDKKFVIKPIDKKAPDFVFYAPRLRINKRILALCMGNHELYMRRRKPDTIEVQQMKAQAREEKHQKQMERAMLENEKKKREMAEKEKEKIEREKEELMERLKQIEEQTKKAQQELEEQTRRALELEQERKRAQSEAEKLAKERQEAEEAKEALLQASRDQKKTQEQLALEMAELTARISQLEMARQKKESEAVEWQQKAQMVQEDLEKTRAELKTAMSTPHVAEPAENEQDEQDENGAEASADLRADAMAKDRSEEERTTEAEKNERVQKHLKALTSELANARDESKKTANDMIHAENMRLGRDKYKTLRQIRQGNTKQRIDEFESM
UniProt P14618: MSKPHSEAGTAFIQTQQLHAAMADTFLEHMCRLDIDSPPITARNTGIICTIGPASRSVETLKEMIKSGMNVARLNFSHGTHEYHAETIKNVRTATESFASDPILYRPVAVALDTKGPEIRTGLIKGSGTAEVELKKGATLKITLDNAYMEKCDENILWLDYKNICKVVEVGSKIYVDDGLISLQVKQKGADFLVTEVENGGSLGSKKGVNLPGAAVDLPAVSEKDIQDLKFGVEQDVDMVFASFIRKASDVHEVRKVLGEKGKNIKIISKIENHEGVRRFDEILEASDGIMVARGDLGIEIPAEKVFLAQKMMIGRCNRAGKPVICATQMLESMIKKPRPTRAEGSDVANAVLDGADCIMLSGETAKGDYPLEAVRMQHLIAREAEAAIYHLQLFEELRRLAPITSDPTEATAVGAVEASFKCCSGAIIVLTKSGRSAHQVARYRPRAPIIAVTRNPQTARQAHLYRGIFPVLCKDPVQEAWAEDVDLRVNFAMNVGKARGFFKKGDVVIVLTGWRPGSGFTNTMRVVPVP

Biological target: T1, NONO-BioID2 fusion protein (UniProt Q15233)
T1 sequence: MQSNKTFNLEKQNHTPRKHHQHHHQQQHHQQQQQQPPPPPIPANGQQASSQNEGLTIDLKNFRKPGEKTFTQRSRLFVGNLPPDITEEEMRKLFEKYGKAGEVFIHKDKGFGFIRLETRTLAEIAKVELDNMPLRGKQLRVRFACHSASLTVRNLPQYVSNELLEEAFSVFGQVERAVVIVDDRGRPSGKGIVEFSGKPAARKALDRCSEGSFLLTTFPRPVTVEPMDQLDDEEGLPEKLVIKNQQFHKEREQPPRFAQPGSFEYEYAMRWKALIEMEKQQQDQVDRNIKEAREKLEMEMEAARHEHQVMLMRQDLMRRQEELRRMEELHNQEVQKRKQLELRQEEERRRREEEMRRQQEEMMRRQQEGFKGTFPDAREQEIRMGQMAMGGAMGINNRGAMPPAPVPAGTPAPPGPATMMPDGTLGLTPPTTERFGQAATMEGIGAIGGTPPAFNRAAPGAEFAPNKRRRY
Experiment: proximity labelling; BioID2: NONO-BioID2 or BioID2 alone in MDA-MB-231 cells, 50 µM biotin for 16-18 h, streptavidin affinity purification, quantitative mass spectrometry

binding | Substance
binds | Moesin (MSN), endogenous (from UniProt P26038 1-577)
binds | PKM2 (pyruvate kinase isozyme type M2), endogenous (from UniProt P14618 1-531)

No constants are given. Whether binding was seen depends on the method and setting. In cells and extracts the contact can be indirect. A yes stands for co-enrichment or nearness to the bait. Other partners may have been found. Sequences can lack the tags named with a protein.
